## Primary screen of a compound library

Amino acid sequences for entries named in this document (tags omitted). Residues count along the entry.
UniProt Q4DA54, 1-478: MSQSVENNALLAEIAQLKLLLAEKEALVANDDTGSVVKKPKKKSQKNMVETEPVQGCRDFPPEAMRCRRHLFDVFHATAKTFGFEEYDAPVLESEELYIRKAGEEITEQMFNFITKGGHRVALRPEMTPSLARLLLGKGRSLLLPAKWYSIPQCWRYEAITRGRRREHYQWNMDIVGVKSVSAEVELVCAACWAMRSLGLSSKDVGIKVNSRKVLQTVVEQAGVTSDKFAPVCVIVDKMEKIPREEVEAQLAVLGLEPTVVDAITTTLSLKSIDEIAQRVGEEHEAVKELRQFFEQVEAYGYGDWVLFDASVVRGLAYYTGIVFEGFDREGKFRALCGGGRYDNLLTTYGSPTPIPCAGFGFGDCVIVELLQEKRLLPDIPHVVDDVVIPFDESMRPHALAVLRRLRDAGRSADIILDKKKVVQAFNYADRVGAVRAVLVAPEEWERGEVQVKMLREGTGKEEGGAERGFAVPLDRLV
UniProt P9WFT3, whole entry: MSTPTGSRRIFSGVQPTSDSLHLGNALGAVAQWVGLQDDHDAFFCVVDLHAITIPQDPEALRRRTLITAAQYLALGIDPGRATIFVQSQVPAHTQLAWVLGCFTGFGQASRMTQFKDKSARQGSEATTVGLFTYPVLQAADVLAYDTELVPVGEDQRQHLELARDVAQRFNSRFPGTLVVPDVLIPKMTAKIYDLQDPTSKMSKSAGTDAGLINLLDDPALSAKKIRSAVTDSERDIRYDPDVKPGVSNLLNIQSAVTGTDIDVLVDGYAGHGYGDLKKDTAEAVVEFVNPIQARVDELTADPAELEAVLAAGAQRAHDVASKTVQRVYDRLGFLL
UniProt I6X8D2, whole entry: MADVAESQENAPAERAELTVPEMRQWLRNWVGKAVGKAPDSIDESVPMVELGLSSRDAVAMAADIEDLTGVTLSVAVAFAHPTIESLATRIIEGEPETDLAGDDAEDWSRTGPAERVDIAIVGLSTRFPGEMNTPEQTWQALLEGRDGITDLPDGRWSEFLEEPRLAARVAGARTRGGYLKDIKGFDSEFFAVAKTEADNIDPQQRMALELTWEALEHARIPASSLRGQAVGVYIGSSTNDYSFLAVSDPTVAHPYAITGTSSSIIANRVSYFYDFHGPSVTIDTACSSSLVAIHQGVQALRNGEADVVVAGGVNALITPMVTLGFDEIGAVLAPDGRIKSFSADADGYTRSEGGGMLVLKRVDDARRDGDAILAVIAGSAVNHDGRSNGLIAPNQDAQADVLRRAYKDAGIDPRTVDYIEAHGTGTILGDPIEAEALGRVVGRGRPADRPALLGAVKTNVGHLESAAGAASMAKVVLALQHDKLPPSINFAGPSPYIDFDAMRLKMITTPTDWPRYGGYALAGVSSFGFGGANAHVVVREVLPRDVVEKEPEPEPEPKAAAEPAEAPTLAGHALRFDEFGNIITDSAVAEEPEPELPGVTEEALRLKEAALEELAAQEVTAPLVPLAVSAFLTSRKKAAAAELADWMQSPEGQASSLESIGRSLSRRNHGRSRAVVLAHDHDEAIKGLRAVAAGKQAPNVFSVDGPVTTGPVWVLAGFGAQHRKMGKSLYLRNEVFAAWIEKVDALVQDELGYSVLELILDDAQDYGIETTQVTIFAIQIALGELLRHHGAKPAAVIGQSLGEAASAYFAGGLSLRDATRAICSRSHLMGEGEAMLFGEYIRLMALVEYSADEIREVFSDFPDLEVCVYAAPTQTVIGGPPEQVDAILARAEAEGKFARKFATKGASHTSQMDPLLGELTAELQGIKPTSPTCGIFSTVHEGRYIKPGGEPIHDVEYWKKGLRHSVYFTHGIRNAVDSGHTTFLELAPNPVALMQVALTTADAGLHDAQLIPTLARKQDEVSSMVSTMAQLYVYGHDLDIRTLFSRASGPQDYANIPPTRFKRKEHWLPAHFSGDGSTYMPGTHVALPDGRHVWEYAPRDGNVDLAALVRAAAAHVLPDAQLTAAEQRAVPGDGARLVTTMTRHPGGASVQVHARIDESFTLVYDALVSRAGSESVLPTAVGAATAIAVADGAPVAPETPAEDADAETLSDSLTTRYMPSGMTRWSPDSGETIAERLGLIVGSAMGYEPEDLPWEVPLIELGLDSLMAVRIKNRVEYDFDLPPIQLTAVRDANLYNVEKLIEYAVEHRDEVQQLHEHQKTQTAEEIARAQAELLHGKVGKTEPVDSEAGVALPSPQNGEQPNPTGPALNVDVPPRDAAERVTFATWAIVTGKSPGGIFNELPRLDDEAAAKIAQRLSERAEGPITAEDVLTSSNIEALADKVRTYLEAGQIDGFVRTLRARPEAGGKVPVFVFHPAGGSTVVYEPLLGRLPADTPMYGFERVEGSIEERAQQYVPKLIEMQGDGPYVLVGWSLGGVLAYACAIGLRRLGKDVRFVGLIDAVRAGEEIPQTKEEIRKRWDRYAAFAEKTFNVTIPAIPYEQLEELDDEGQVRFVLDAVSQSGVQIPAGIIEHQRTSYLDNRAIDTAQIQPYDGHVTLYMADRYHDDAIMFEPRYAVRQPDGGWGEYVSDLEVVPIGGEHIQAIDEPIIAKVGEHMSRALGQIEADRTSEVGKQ
UniProt Q8IDJ8, 1-583: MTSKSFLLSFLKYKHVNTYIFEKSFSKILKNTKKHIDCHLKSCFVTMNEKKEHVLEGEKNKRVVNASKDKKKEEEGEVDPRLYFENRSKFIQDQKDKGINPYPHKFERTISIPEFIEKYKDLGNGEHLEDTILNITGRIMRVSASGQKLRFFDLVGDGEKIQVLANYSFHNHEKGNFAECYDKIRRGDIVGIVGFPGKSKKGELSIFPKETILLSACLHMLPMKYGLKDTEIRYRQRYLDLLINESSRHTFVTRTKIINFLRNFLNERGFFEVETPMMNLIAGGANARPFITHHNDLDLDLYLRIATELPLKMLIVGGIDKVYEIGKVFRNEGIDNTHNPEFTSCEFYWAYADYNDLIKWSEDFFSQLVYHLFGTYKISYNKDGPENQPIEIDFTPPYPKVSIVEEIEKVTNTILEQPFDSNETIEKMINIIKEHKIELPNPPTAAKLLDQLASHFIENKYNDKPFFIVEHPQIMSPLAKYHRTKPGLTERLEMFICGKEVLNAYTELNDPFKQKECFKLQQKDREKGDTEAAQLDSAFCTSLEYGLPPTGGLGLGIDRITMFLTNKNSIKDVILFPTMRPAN

TcHisRS: 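Enzyme assay of histidyl-tRNA synthetase; the read-out is not stated. Target: Histidine-tRNA ligase, Trypanosoma cruzi CL Brener (UniProt Q4DA54). Compounds at 30 µM. Direction is inferred from retests: higher values go with stronger inhibition. Of about 69,000 compounds tested this way, about 31 (0.045%) reached 50% or more in at least one test.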
MtTrpRS: 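Enzyme assay of tryptophanyl-tRNA synthetase; the read-out is not stated. Target: Tryptophan-tRNA ligase, Mycobacterium tuberculosis (UniProt P9WFT3). Compounds at 10 µM. Direction is not recorded; retested compounds ran higher, which suggests that high means inhibition. About 65,000 compounds were tested under these conditions; 0.098% (about 64) showed 50% or more at least once.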
Pks13 thioesterase: 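Polyketide synthase Pks13, Mycobacterium tuberculosis (UniProt I6X8D2). Enzyme assay of the thioesterase domain of polyketide synthase 13; the read-out is not stated. Compounds at 30 µM. Higher reads as stronger inhibition (inferred from which compounds were picked for retests). Of about 67,000 compounds tested this way, about 300 (0.46%) reached 50% or more in at least one test.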
PfKRS1: 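Lysine-tRNA ligase, Plasmodium falciparum 3D7 (UniProt Q8IDJ8). Enzyme assay of the cytosolic lysyl-tRNA synthetase in 384-well plates, read by luminescence. Concentration: 30 µM. Direction is inferred from only a few compounds that gave an IC50; most scored high, so higher reads as stronger inhibition. About 69,000 compounds were tested under these conditions; 0.071% (about 49) showed 50% or more at least once.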
Toxoplasma: 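Assay of Toxoplasma gondii numbers, read through their beta-galactosidase reporter with a colour substrate. Compounds at 10 µM. Higher reads as fewer parasites (inferred from which compounds were picked for retests). Size under these conditions: about 67,000 compounds, about 260 of them at 50% or above in at least one test.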

Each number is a percent effect as filed. The record does not define 0% and 100%; most values in the screen are far below 50% and negative numbers occur (in some assays of this library far below -100). Compounds were drawn at random from those tested, without regard to their results. A dash means the value is not listed here; it may have been measured.

SMILES	TcHisRS	MtTrpRS	Pks13 thioesterase	PfKRS1	Toxoplasma
COc1ccccc1N1CCN(Cc2nccc(OC)c2OC)CC1=O	-5.6%	-0.6441%	-26.31%	-1.636%	-18.58%
c1csc(CN2Cc3nccn3CC(Cn3cncn3)C2)c1 (stereo unspecified)	6.03%	2.179%	-6.847%	1.595%	-
Cc1sc(C(=O)NC(C)C)cc1S(=O)(=O)N(C)C	1.429%	-4.651%	-8.641%	1.223%	-4.103%
CN1CCN([C@@H]2CCN(Cc3cccc(-n4cccn4)c3)C[C@H]2O)CC1	3.704%	-2.436%	2.367%	-5.044%	-4.302%
COCCN(CCOC)C(=O)c1cc(F)cc2[nH]cnc12	2.439%	-4.495%	-0.0311%	4.582%	-13.3%
O=C(NC1CC1)c1nnn(-c2cccc(C(F)(F)F)c2)c1C1CC1	1.339%	1.91%	-29.83%	6.162%	2.105%
O=C(C1CCC1)N1C[C@@H]2CN(c3ccccc3)C(=O)[C@@H]2C1	2.913%	-0.2907%	-21.6%	-0.4829%	-
CC(C)N(C)Cc1cncc2c1CCN(C(=O)c1ccccc1F)C2	4.301%	1.057%	-	5.888%	-

Measurements from “University of Dundee, Small-Polar-MMV Screening Library” (2021), ChEMBL document CHEMBL3988442.